Measurements published in article PMC7181051, “Probing the Protein-Protein Interaction between the ATRXADD Domain and the Histone H3 Tail” (Molecules, 2020).
Results are given in words; binding and its absence hold for the method and conditions named.

T1: ADD domain of ATRX (ATRXADD) (UniProt P46100)
T1 sequence: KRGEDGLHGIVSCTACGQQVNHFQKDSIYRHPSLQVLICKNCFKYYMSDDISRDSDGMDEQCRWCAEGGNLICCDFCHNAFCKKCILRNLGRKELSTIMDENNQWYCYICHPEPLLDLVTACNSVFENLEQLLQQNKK


Experiments:
[1] = target: T1, ADD domain of ATRX (ATRXADD); assay: fluorescence polarisation; competition: ATRXADD (5 μM) and H3_(1-15)K9me3-FAM (0.75 μM) incubated 15 minutes at room temperature, then unlabeled peptide at varying concentrations; PBS; 384-well plate; both purified
[2] = target: T1, ADD domain of ATRX (ATRXADD); assay: fluorescence polarisation; competition as in the FP assay, two peptides (H3_(1-5) + H3_(7-11)K9me3) added in combination; both purified

Row | Binder | binding [1] | binding [2]
1 | TKQTARKST (trimethyl-lysine at K9 of H3 (seventh residue of the peptide), printed K(me3)) [H3_(3-11)K9me3 peptide] | no binding (tested: 100 µM (highest concentration tested)) | 
2 | RTKQT [H3_(2-6) peptide] | no binding (tested: 100 µM (highest concentration tested)) | 
3 | TKQTAR [H3_(3-8) peptide] | no binding (tested: 100 µM (highest concentration tested)) | 
4 | ARKST (trimethyl-lysine at K9 of H3 (third residue of the peptide), printed K(me3)) [H3_(7-11)K9me3 peptide] | no binding (tested: 100 µM (highest concentration tested)) | no binding (condition: added together with H3_(1-5))
5 | ARTKQ [H3_(1-5) peptide] |  | no binding (condition: added together with H3_(7-11)K9me3)
6 | ARTKQTA (trimethyl-lysine at 4, printed K(me3)) [H3_(1-7)K4me3 peptide] | no binding (tested: 100 µM (highest concentration tested)) | 
